Reference: article PMC6131644
No constants are given. Whether binding was seen depends on the method and setting. Some results given as binding are weak or reduced against the parent protein; the word gives no strength. Sequences can lack the tags named with a protein.

Biological target: N-cadherin endogenously expressed on PC12 rat pheochromocytoma cells (rat (endogenous in PC12)) (UniProt Q9Z1Y3)
Assay: magnetic tweezer bead adhesion assay; N-cad-Fc-coated superparamagnetic beads settled about 3 min on PC12 cells in cell culture medium (2 mM Ca); electromagnet at 200 mA removes beads not tightly attached; no zinc added; only the binder purified

binding: binds
B1: N-cadherin-Fc fusion protein (mouse N-cadherin extracellular domain fused to Fc-portion of human IgG1) (Fc fusion, UniProt P15116 160-724)
chain: DWVIPPINLPENSRGPFPQELVRIRSDRDKNLSLRYSVTGPGADQPPTGIFIINPISGQLSVTKPLDRELIARFHLRAHAVDINGNQVENPIDIVINVIDMNDNRPEFLHQVWNGSVPEGSKPGTYVMTVTAIDADDPNALNGMLRYRILSQAPSTPSPNMFTINNETGDIITVAAGLDREKVQQYTLIIQATDMEGNPTYGLSNTATAVITVTDVNDNPPEFTAMTFYGEVPENRVDVIVANLTVTDKDQPHTPAWNAAYRISGGDPTGRFAILTDPNSNDGLVTVVKPIDFETNRMFVLTVAAENQVPLAKGIQHPPQSTATVSVTVIDVNENPYFAPNPKIIRQEEGLHAGTMLTTLTAQDPDRYMQQNIRYTKLSDPANWLKIDPVNGQITTIAVLDRESPNVKNNIYNATFLASDNGIPPMSGTGTLQIYLLDINDNAPQVLPQEAETCETPEPNSINITALDYDIDPNAGPFAFDLPLSPVTIKRNWTINRLNGDFAQLNLKIKFLEAGIYEVPIIITDSGNPPKSNISILRVKVCQCDSNGDCTDVDRIVGAGLGTGA
